Results are given in words; binding and its absence hold for the method and conditions named. Binding seen in cells or lysates may run through a third protein. Some binding calls cover weakened binding; strength is not graded here.
Columns and labels:
[1] = biological target: GST-PAK4 fusion protein (p21-activated kinase 4) (UniProt O96013); assay: pull-down; GST or GST-PAK4 fusion proteins incubated with Flag-tagged protein translated in vitro; bound proteins detected by western blotting; only the target purified
[2] = biological target: p21-activated kinase 4 (PAK4), endogenous in HCT-116 p53+/+ cells (human (endogenous in HCT-116)) (UniProt O96013); assay: co-IP; HCT-116 p53+/+ lysate (2 mg total protein) immunoprecipitated with specific antibody (G6PD or PAK4) or IgG control, protein A agarose beads, overnight at 4 °C, western blotting; for p53 the cells were treated with 5 nM DOX for 12 h
[3] = biological target: glucose-6-phosphate dehydrogenase (G6PD), endogenous in HCT-116 p53+/+ cells (human (endogenous in HCT-116)) (UniProt P11413); assay: as above

Chains of the proteins cited; added tags and fusions are not shown.
UniProt O96013: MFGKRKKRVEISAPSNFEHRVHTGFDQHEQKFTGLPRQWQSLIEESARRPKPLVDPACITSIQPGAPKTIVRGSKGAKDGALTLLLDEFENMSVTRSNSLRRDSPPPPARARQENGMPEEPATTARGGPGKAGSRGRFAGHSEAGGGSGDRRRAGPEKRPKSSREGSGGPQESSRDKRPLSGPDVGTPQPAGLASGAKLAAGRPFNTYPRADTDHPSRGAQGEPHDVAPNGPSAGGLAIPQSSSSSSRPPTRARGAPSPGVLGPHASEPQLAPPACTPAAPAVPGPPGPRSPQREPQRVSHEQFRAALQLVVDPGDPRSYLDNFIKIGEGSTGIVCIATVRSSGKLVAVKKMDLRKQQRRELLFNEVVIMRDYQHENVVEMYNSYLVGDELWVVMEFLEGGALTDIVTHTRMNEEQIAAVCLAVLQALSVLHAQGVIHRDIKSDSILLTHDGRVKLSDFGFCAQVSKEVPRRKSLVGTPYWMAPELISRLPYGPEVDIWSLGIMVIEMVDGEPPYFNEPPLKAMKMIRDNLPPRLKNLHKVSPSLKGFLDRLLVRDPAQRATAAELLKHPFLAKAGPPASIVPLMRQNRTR
UniProt P11413: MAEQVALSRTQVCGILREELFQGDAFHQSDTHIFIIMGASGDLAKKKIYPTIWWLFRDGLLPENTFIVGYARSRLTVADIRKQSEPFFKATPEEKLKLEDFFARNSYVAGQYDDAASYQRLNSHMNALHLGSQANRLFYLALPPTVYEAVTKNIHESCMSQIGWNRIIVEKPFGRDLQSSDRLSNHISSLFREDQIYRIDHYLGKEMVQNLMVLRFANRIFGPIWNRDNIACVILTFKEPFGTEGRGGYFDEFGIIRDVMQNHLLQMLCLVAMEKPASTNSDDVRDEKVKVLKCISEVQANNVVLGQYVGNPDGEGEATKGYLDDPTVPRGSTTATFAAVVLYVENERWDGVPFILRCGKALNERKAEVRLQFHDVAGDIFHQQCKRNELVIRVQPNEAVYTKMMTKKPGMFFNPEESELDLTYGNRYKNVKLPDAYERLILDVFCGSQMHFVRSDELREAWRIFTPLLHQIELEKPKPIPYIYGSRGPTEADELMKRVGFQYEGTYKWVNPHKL
UniProt Q00987: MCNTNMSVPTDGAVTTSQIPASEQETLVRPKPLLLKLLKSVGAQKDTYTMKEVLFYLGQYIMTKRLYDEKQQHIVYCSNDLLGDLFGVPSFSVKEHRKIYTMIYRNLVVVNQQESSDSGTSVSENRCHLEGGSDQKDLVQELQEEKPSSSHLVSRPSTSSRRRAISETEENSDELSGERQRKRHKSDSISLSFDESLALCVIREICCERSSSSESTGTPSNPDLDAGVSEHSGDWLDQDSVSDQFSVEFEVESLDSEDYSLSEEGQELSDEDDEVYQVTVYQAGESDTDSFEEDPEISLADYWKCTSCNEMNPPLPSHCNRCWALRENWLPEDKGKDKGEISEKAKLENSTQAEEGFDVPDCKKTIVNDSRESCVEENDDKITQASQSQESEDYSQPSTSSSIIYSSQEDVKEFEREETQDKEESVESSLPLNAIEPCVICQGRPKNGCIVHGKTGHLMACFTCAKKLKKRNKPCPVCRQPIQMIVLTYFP

Substance	binding [1]	binding [2]	also measured
Flag-G6PD (glucose-6-phosphate dehydrogenase), translated in vitro (from UniProt P11413 1-515) (enzyme)	binds	–	–
murine double minute 2 (Mdm2), endogenous in HCT-116 p53+/+ cells (from UniProt Q00987 1-491) (enzyme)	–	binds	–
p21-activated kinase 4 (PAK4), endogenous in HCT-116 p53+/+ cells (from UniProt O96013 1-591) (enzyme)	–	–	binding [3]: binds

The next lines start with results.

binding [1]	binding [2]	Substance	also measured
binds	–	Flag-p53, translated in vitro (from UniProt P04637 1-393)	–
–	binds	p53, endogenous in HCT-116 p53+/+ cells (from UniProt P04637 1-393)	–
